Reference: PMC2662410
These are yes or no findings as the source states them, for the method shown. In cells and extracts the contact can be indirect. Some results given as binding are weak or reduced against the parent protein; the word gives no strength.

T1: Fas/CD95 death receptor (human (endogenous in Jurkat)), P25445
T1 chain: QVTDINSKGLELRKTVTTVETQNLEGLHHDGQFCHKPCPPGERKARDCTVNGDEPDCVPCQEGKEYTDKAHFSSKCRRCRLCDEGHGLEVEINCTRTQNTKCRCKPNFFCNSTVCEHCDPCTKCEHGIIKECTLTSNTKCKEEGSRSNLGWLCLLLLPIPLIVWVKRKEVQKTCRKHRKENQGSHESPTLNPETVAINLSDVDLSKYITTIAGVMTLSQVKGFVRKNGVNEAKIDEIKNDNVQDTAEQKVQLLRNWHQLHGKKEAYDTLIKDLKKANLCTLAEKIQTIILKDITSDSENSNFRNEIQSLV

B1: Fas-associated death domain-containing protein (FADD), Q13158 1-208 (protein)
chain: MDPFLVLLHSVSSSLSSSELTELKFLCLGRVGKRKLERVQSGLDLFSMLLEQNDLEPGHTELLRELLASLRRHDLLRRVDDFEAGAAAGAAPGEEDLCAAFNVICDNVGKDWRRLARQLKVSDTKIDSIEDRYPRNLTERVRESLRIWKNTEKENATVAHLVGALRSCQMNLVADLVQEVQQARDLQNRSGAMSPMSWNSDASTSEAS
B2: procaspase-8, Q14790 1-479 (enzyme)
chain: MDFSRNLYDIGEQLDSEDLASLKFLSLDYIPQRKQEPIKDALMLFQRLQEKRMLEESNLSFLKELLFRINRLDLLITYLNTRKEEMERELQTPGRAQISAYRVMLYQISEEVSRSELRSFKFLLQEEISKCKLDDDMNLLDIFIEMEKRVILGEGKLDILKRVCAQINKSLLKIINDYEEFSKERSSSLEGSPDEFSNGEELCGVMTISDSPREQDSESQTLDKVYQMKSKPRGYCLIINNHNFAKAREKVPKLHSIRDRNGTHLDAGALTTTFEELHFEIKPHDDCTVEQIYEILKIYQLMDHSNMDCFICCILSHGDKGIIYGTDGQEAPIYELTSQFTGLKCPSLAGKPKVFFIQACQGDNYQKGIPVETDSEEQPYLEMDLSSPQTRYIPDEADFLLGMATVNNCVSYRNPAEGTWYIQSLCQSLRERCPRGDDILTILTEVNYEVSNKDDKKNMGKQMPQPTFTLRKKLVFPSD

Target: T1, Fas/CD95 death receptor (human …)
Assay: co-IP; Fas/CD95 immunoprecipitated with anti-Fas/CD95 (C-20) on protein A-Sepharose from the raft fraction (fractions 3-5) of Jurkat cells treated with 10 µM edelfosine for 9 h; lysis buffer 20 mM Tris-HCl pH 7.5, 100 mM KCl, 0.9% Triton X-100, 10% glycerol; blotted for FADD and procaspase-8
Details: remark: other sources report otherwise

Binder	binding
B1	binds
B2	binds
